Taken from: PubChem BioAssay AID504764 (Drosophila RNAi Screening Center, 2011)
The screen tested about 22,000 reagents; below is an unselected part of those that have a named target and a result. In the full data, 403 (1.9%) got an active call. 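Unnormalised raw counts per well; ratio z-scores behind the hit calls and whether each hit raises or lowers signal are not deposited.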 The numbers tell different reagents against one gene apart. A plus sign joins genes that one reagent is predicted to hit. Not given: the amount of reagent.

Purpose: 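Genome-wide screen for regulators of Notch-driven gene expression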 (primary screen)
Cell system: Drosophila Kc167 cells
Reagents: long dsRNA against Drosophila genes
Timing: about 5 days (4 days dsRNA, then 24 h after transfection)
Treatment: transfection of constitutively active membrane-tethered Notch lacking the extracellular domain, read 24 h later
Read-out: 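Light from a Notch-responsive E(spl)m3 luciferase reporter under active Notch, with control-promoter and no-Notch reporter wells to normalise; raw counts from paired wells a and b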
Reading the numbers: induced reporter light, run 1, well a and induced reporter light, run 1, well b: higher = more light from the Notch target reporter with active Notch; control promoter light, run 1, well a and control promoter light, run 1, well b: higher = more light from the viral control promoter (cell number, transfection, viability); uninduced reporter light, run 1, well a: higher = more light from the Notch target reporter without active Notch
Rule for the call: 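Wells with low control signal or poorly matching duplicates excluded; duplicates averaged; per source plate, z beyond ±2 for induced/control log2 ratio or beyond ±1.8 for induced/uninduced marks a hit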
Calls: active = modifier hit (raised or lowered Notch signal); inactive = not a hit

gene knocked down	reagent	induced reporter light, run 1, well a	induced reporter light, run 1, well b	control promoter light, run 1, well a	control promoter light, run 1, well b	uninduced reporter light, run 1, well a	outcome
BBS1 (GeneID 38780)	1	1.54e5	1.76e5	2.29e5	2.48e5	13170	inactive
CG42560 + CG42559	1						active
Mur29B (GeneID 319014)	1	1.16e5	1.07e5	1.50e5	1.19e5	7515	inactive
Mur29B (GeneID 319014)	2	1.67e5	1.85e5	81030	1.11e5	22005	inactive
CG42789 (GeneID 10178793)	1	2.64e5	2.35e5	3.44e5	3.47e5	15480	inactive
CG33489 (GeneID 2768971)	1	91810	1.29e5	1.42e5	1.40e5	7845	inactive
phtm (GeneID 32857)	1	76625	98055	96070	1.12e5	10495	inactive
Tango2 (GeneID 32319)	1	2.32e5	1.70e5	2.63e5	2.38e5	14000	inactive
Mesh1 (GeneID 43456)	1	1.31e5	1.33e5	1.85e5	1.52e5	11265	inactive
frac (GeneID 38850)	1	1.52e5	1.04e5	92695	51880	11085	inactive
CARPB (GeneID 31915)	1	1.89e5	1.98e5	2.19e5	1.86e5	13715	inactive
CARPB (GeneID 31915)	2	1.14e5	1.05e5	1.82e5	1.52e5	8138	inactive
CG34297 (GeneID 5740802)	1	1.90e5	1.26e5	1.42e5	1.19e5	15140	inactive
CG32053 (GeneID 39178)	1	75495	88040	68565	28005	9510	inactive
lab (GeneID 40817)	1	42110	43670	44195	45355	5190	inactive
Ars2 (GeneID 35539)	1	73000	89355	92065	93895	5010	inactive
vig2 (GeneID 43016)	1	2.11e5	2.21e5	2.28e5	3.06e5	16940	inactive
Pbp45 (GeneID 41920)	1	2.38e5	2.68e5	2.14e5	2.25e5	15660	inactive
CG2811 (GeneID 37988)	1	1.69e5	1.67e5	1.63e5	1.57e5	10778	inactive
CG12432 (retired record) (GeneID 32730)	1	63630	68990	91230	79885	9040	inactive
Pez (GeneID 33882)	1	2.28e5	1.39e5	2.02e5	1.88e5	10682	inactive
CG12071 (GeneID 43660)	1	3435	2800	5545	5825	2265	inactive
dpr20 (GeneID 38101)	1	79260	77305	1.41e5	1.82e5	8405	inactive
BckdhA (GeneID 41149)	1	79670	62095	68655	57715	4930	inactive
tty (GeneID 33109)	1	1.48e5	1.40e5	1.30e5	75935	10880	inactive
hng1 (GeneID 37412)	1	91635	84365	60435	69395	5920	inactive
CG5504 (GeneID 48844)	1	1.63e5	1.91e5	1.66e5	1.88e5	15540	inactive
CG8562 (GeneID 38828)	1	1.34e5	1.14e5	1.98e5	1.69e5	9160	active
xmas (GeneID 44271)	1	99410	87165	1.03e5	1.01e5	8850	inactive
pirk (GeneID 37468)	1	24238	23542	20565	27680	2740	inactive
Pex14 (GeneID 40294)	1	1.40e5	1.02e5	1.00e5	1.11e5	8390	inactive
CG13230 (GeneID 50237)	1	1.38e5	1.28e5	2.05e5	2.15e5	15480	inactive
CG1909 (GeneID 43800)	1	2.56e5	1.98e5	3.20e5	3.82e5	17155	inactive
CG32436 (GeneID 40362)	1	1.13e5	1.03e5	1.47e5	1.23e5	7410	inactive
CG32436 (GeneID 40362)	2	1.09e5	1.09e5	1.29e5	1.01e5	6990	inactive
